Values quoted from earlier work, collected in US20260284201A1, “COMPOSITIONS AND METHODS FOR TREATING TENDON AND BONE INJURIES” (The United States Government as represented by the …, priority 2023, published 2026).

Test system: human rotator cuff tendon fibroblasts
Conditions: low dose, in vitro; cited from earlier work

Structure (SMILES): NCCCC(O)(P(=O)(O)O)P(=O)(O)O [alendronate]
- viability, proliferation and wound healing capacity: little effect
